Here are results for two molecules from patent US20170107294A1, “ANTI-CD14 ANTIBODIES AND USES THEREOF” (Nordlandssykehuset HF, priority 2014, published 2017).

The chains behind the UniProt entries cited, without tags or fusion partners. Where a name states a change or a piece, a line headed by the entry shows the natural chain unless it says otherwise.
UniProt P12318: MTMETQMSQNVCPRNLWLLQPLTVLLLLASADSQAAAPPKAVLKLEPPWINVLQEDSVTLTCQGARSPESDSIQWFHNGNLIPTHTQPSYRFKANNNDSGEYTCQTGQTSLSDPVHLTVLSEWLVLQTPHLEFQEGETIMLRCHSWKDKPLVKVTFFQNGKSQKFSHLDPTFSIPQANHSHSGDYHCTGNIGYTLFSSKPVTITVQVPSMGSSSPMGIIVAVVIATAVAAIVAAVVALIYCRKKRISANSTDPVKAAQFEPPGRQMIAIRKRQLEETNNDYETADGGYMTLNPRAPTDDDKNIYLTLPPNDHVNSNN

Results are given in words; binding and its absence hold for the method and conditions named. Some binding calls cover weakened binding; strength is not graded here.

For assay [1], the target named is T1, human FcgRIIa (allotype His131) ectodomains fused to GST (human; Schistosoma japonicum) (UniProt P12318+P08515). The assay can be described thus: ELISA, coated Ab, GST-fused receptor (FIG. 5).
Assay [2] has as its target T1, human FcgRIIa (allotype His131) ectodomains fused to GST (human; Schistosoma japonicum). Briefly: ELISA, coated Ab, GST-fused receptor.

B1: recombinant Mil2 (rMil2), recombinant anti-porcine CD14 IgG2/4 Ab (antibody)
heavy: QVRLQQPGAELVRPGASVKLSCKASGYTFTTYWMNWVKQRPEDGLEWIGRIDPYDSETHYNQNFKDKAILTVDKSSSTAYMQLSSLTYEDSAVYYCTRKEGRQWGAYFDYWGQGTTLTVSSASTKGPSVFPLAPCSRSTSESTAALGCLVKDYFPEPVTVSWNSGALTSGVHTFPAVLQSSGLYSLSSVVTVPSSNFGTQTYTCNVDHKPSNTKVDKTVERKCCVECPPCPAPPVAGPSVFLFPPKPKDTLMISRTPEVTCVVVDVSQEDPEVQFNWYVDGVEVHNAKTKPREEQFNSTYRVVSVLTVLHQDWLNGKEYKCKVSNKGLPSSIEKTISKAKGQPREPQVYTLPPSQEEMTKNQVSLTCLVKGFYPSDIAVEWESNGQPENNYKTTPPVLDSDGSFFLYSRLTVDKSRWQEGNVFSCSVMHEALHNHYTQKSLSLSLGK
light: DIVMTQSQKFMSTSVGDRVSVTCKASQYVGTNVAWYQQKPGQSPKALIQSASYRCSGVPDRFTGSGSGTDFTLTISNVQSEDLADYFCQQYNTYVTFGGGTKLELKRTVAAPSVFIFPPSDEQLKSGTASVVCLLNNFYPREAKVQWKVDNALQSGNSQESVTEQDSKDSTYSLSSTLTLSKADYEKHKVYACEVTHQGLSSPVTKSFNRGEC
Take B1: the binding entry in assay [1] and in assay [2] was “binds” in each case.

B2: recombinant 18D11 (r18D11), recombinant anti-human CD14 IgG2/4 Ab (antibody)
heavy: EVQLVESGGGLMQPKGSLKLSCAASGFTFKTYALNWVRQAPGTGLEWVARIRSKSNNYTTYYADSVKDRFTISRDDSQNMLYLQMNNLKTEDTAMYYCVRPQSGTSFAYWGQGTLVTVSAASTKGPSVFPLAPCSRSTSESTAALGCLVKDYFPEPVTVSWNSGALTSGVHTFPAVLQSSGLYSLSSVVTVPSSNFGTQTYTCNVDHKPSNTKVDKTVERKCCVECPPCPAPPVAGPSVFLFPPKPKDTLMISRTPEVTCVVVDVSQEDPEVQFNWYVDGVEVHNAKTKPREEQFNSTYRVVSVLTVLHQDWLNGKEYKCKVSNKGLPSSIEKTISKAKGQPREPQVYTLPPSQEEMTKNQVSLTCLVKGFYPSDIAVEWESNGQPENNYKTTPPVLDSDGSFFLYSRLTVDKSRWQEGNVFSCSVMHEALHNHYTQKSLSLSLGK
light: NIVLTQSPASLAVSLGQRATISCRASESVDSYGNSFMHWYQQKPGQPPKLLIYLASNLESGVPARFSGSGSRTDFTLTIDPVEADDVATYYCQQNNGDPYTFGGGTKLEIIRTVAAPSVFIFPPSDEQLKSGTASVVCLLNNFYPREAKVQWKVDNALQSGNSQESVTEQDSKDSTYSLSSTLTLSKADYEKHKVYACEVTHQGLSSPVTKSFNRGEC
Regarding B2, the binding entry in assay [1] and in assay [2] was “binds” each time.
